The numbers were not newly measured in paper PMC3383642 (Nature, 2012), which cites them from elsewhere.

The conditions of this data set: human plasma, ref Thompson Reuters Integrity, cited from earlier work.

As for `CN(C)CCOC(c1ccccc1)c1ccccc1` [Diphenhydramine], the “AUC [μM*h] (median)” value (median of reported values) was 3.00 µM·h. For the setting “range of reported values”, the AUC (as a rule, concentration integrated over time) was 2.57 to 3.42 µM·h and the Cmax (usually the highest concentration seen after dosing) is 260 nM.
